At least one compound was matched to its structure with a doubt left.
Tested on: M.smegmatis 607™ (RB mutant)
Format: cell-based, Mycobacterium smegmatis
Conditions: dark condition

Q: With CO[C@H]1/C=C/O[C@@]2(C)Oc3c(C)c(O)c4c(O)c(c(/C=N/N5CCN(C)CC5)c(O)c4c3C2=O)NC(=O)/C(C)=C\C=C\[C@H](C)[C@H](O)[C@@H](C)[C@@H](O)[C@@H](C)[C@H](OC(C)=O)[C@@H]1C [Rifampicin, rifampicin] as the compound, how does the “susceptibility of the RB-resistant strain to the drug” value read?
A: The value was “susceptible”.
